Results on three molecules are retold here after PMC5605756.

By UniProt entry, the sequences of proteins in these tests, tags left out.
UniProt Q00175: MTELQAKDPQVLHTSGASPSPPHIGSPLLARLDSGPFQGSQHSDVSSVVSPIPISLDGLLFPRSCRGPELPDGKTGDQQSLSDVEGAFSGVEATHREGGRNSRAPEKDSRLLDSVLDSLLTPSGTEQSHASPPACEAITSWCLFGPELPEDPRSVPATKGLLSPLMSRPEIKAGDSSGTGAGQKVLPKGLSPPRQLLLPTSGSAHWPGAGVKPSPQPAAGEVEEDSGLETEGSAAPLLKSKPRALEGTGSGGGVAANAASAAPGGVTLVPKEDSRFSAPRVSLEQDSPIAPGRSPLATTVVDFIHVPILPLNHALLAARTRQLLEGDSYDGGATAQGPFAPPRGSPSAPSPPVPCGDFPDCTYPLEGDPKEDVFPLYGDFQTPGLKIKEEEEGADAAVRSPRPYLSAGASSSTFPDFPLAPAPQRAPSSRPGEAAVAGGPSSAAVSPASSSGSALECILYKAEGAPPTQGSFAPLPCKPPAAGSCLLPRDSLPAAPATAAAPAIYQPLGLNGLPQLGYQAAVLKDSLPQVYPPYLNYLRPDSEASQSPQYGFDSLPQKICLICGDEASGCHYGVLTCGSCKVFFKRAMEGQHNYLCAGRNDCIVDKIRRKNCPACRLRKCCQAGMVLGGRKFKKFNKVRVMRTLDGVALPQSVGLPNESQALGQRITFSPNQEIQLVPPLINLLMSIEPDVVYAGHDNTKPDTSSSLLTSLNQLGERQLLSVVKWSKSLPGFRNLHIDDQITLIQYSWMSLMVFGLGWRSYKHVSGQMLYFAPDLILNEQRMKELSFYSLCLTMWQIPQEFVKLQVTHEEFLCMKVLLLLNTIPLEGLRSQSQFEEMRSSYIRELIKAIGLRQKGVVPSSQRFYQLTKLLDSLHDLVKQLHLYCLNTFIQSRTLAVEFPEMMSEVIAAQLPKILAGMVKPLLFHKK

No constants are given. Whether binding was seen depends on the method and setting. Binding seen in cells or lysates may run through a third protein. Binding calls can cover weak binding; strength is not graded here. For part of these data: Sequences can lack the tags named with a protein.

Assay [1] deals with glutathione S-transferase-tagged mouse progestin receptor PR-B (mouse) (UniProt Q00175). Kind of assay: pull-down; GST-PRA or GST-PRB bound to R5020, immobilised on glutathione Sepharose 4B, incubated 1 h at 4°C with pooled female mouse hypothalamic homogenate; eluted by boiling in Laemmli buffer; Western blot; only the target purified. In general terms: In western blotting, separated proteins are transferred to a membrane and probed.

Assay [2] deals with glutathione S-transferase-tagged mouse progestin receptor PR-A (mouse). Kind of assay: pull-down; GST-PRA or GST-PRB bound to R5020, immobilised on glutathione Sepharose 4B, incubated 1 h at 4°C with pooled female mouse hypothalamic homogenate; eluates spotted and read by reverse phase protein array (RPPA) with 212 antibodies, normalised to PR signal; a hit has a ratio R5020/no ligand ≥2 and p < 0.05; only the target purified.

Turning to synapsin-Ia (from UniProt O88935-2), the binding result in assay [1] was “binds”.

B1: BCL2 antagonist/killer 1 (protein, UniProt O08734 1-209)
chain: MASGQGPGPPKVGCDESPSPSEQQVAQDTEEVFRSYVFYLHQQEQETQGAAAPANPEMDNLPLEPNSILGQVGRQLALIGDDINRRYDTEFQNLLEQLQPTAGNAYELFTKIASSLFKSGISWGRVVALLGFGYRLALYVYQRGLTGFLGQVTCFLADIILHHYIARWIAQRGGWVAALNFRRDPILTVMVIFGVVLLGQFVVHRFFRS
For B1, in assay [2], the binding entry is recorded as “binds”.

B2: Cyclin C (protein, UniProt Q62447 1-283)
chain: MAGNFWQSSHYLQWILDKQDLLKERQKDLKFLSEEEYWKLQIFFTNVIQALGEHLKLRQQVIATATVYFKRFYARYSLKSIDPVLMAPTCVFLASKVEEFGVVSNTRLIAATTSVLKTRFSYAFPKEFPYRMNHILECEFYLLELMDCCLIVYHPYRPLLQYVQDMGQEDVLLPLAWRIVNDTYRTDLCLLYPPFMIALACLHVACVVQQKDARQWFAELSVDMEKILEIIRVILKLYEQWKNFDERKEMATILSKMPKPKPPPNSEGEQGPNGSQNSSYSQS
In the case of B2, the binding result in assay [2] was “binds”.
